# Measurements: publication PMC7367195
# The chains behind the UniProt entries cited, without tags or fusion partners.
# UniProt Q8R418: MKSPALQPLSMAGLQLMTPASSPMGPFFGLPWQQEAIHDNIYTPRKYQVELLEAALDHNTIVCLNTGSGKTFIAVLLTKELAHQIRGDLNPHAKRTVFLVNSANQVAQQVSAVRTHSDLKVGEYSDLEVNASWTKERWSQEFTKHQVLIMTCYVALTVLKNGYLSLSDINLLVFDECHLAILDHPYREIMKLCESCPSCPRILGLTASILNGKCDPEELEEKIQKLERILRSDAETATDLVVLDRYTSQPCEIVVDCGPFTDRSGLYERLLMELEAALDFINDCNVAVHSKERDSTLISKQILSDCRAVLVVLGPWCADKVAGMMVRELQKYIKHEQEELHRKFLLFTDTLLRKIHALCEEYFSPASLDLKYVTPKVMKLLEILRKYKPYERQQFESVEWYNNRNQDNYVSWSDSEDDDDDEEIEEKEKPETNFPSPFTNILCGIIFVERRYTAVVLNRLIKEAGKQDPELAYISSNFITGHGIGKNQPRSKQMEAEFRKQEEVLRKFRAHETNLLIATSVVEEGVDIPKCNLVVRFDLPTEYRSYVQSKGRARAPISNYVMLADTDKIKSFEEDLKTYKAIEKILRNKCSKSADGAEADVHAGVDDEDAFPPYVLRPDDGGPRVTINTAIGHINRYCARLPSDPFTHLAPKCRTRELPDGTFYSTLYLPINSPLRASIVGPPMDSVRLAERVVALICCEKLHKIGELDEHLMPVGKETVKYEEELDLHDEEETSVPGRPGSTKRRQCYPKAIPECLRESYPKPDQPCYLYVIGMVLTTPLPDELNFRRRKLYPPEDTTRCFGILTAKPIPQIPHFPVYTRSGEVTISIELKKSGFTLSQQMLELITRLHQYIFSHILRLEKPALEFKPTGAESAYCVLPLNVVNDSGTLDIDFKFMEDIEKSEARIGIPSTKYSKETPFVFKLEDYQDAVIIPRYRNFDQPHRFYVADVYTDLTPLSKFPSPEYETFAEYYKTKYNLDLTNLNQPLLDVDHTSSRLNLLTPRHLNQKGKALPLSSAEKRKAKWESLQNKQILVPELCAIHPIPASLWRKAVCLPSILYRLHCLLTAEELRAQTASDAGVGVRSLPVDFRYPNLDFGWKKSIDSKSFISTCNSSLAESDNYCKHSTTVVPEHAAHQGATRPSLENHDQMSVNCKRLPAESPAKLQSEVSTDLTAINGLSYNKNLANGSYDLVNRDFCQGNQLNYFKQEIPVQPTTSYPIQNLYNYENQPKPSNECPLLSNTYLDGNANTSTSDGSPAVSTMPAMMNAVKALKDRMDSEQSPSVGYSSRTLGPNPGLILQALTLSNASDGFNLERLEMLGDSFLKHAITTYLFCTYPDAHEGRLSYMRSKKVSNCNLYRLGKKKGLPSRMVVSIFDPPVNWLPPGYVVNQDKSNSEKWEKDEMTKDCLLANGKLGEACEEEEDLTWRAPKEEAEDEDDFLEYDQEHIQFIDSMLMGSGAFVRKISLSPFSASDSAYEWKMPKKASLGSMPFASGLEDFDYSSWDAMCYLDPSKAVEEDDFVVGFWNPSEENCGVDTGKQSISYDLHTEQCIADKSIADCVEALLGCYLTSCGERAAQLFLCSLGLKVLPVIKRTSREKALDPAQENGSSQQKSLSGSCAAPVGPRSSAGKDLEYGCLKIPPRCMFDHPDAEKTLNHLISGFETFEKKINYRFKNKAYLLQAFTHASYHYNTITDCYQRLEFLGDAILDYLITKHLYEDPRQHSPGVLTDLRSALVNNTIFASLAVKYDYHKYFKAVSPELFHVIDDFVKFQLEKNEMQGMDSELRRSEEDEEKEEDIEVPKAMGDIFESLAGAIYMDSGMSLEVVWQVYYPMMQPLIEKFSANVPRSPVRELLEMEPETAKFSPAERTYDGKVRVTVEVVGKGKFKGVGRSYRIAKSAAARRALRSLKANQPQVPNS
# UniProt Q6P4T2: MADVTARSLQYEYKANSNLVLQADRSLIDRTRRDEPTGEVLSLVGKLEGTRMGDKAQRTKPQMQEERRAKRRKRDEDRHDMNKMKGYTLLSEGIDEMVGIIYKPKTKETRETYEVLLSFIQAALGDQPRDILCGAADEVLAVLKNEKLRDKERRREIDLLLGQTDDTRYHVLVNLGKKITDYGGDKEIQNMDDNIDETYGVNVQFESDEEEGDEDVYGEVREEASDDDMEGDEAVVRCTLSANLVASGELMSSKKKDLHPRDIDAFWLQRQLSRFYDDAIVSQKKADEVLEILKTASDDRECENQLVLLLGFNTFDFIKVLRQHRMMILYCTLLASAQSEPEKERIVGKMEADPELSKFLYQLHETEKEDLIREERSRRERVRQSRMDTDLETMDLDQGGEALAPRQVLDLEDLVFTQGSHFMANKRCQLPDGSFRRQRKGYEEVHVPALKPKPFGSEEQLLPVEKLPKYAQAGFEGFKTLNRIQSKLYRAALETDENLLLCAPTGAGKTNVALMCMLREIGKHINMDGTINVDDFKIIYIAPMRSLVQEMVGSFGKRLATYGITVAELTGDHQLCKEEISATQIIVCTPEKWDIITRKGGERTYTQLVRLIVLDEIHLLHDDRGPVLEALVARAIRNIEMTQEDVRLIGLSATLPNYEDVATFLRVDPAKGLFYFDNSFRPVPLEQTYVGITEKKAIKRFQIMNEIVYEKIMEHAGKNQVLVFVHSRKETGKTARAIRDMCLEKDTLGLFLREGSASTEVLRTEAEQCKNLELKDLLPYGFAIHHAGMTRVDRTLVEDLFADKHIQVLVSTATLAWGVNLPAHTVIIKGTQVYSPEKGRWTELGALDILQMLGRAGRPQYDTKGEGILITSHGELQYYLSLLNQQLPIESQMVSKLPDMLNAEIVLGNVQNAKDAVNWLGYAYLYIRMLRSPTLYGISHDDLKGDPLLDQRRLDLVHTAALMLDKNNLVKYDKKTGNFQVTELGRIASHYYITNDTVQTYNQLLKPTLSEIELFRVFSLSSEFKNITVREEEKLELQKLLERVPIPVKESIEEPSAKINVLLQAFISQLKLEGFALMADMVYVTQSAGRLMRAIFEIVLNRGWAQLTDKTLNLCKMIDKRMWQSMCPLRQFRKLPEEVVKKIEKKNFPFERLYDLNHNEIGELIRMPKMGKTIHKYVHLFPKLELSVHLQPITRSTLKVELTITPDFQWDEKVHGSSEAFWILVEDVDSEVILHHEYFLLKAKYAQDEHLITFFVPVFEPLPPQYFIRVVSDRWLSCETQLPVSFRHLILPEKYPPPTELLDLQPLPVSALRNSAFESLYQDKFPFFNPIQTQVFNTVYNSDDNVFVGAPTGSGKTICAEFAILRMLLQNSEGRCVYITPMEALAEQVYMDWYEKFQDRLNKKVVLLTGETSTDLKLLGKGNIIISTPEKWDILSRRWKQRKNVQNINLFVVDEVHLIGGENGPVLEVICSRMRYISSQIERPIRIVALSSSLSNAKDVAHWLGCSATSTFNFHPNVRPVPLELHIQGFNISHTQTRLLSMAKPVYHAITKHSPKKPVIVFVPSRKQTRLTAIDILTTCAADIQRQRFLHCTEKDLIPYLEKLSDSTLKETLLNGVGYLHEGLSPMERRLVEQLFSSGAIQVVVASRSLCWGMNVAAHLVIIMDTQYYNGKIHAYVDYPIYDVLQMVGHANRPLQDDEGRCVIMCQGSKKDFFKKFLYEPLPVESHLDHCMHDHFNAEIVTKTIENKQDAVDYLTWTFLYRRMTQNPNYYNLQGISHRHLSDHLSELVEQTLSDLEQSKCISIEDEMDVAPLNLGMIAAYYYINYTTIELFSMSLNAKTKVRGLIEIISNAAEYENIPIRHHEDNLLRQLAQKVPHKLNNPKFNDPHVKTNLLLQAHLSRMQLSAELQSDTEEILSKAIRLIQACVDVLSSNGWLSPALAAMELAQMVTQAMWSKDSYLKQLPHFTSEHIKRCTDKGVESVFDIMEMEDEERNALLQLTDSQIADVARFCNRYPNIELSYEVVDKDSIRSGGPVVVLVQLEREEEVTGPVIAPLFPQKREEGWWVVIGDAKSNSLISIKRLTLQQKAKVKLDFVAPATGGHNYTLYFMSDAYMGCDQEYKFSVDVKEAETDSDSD
# UniProt Q60749: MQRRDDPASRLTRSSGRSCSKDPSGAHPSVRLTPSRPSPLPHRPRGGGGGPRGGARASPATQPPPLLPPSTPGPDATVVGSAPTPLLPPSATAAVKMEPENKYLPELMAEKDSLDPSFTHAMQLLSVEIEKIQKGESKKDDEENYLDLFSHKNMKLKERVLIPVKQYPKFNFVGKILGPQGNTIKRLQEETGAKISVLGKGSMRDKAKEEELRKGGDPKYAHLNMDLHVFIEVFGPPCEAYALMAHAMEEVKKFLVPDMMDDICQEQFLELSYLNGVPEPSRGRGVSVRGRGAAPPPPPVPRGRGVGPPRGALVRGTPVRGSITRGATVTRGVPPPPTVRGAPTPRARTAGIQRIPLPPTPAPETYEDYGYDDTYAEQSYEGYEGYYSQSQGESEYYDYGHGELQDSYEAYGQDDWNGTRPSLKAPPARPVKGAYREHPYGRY
# No constants are given. Whether binding was seen depends on the method and setting. In cells and extracts the contact can be indirect. These calls come from enrichment with a bait or labelling near it, and not all partners need be listed.
# B1: PSPC1 (Paraspeckle component 1) (protein, UniProt Q8R326 1-523)
# chain: MMLRGNLKQVRIEKNPARLRALESAAGESEPVAAAAMALTLAGEQAPPPAPSEEHPDEELGFTIDIKSFLKPGEKTYTQRCRLFVGNLPTDITEEDFKRLFERYGEPSEVFINRDRGFGFIRLESRTLAEIAKAELDGTILKSRPLRIRFATHGAALTVKNLSPVVSNELLEQAFSQFGPVEKAVVVVDDRGRATGKGFVEFAAKPPARKALERCGDGAFLLTTTPRPVIVEPMEQFDDEDGLPEKLMQKTQQYHKEREQPPRFAQPGTFEFEYASRWKALDEMEKQQREQVDRNIREAKEKLEAEMEAARHEHQLMLMRQDLMRRQEELRRLEELRNQELQKRKQIQLRHEEEHRRREEEMIRHREQEELRRQQEGGFKPNYMENREQEMRMGDMGPRGAINMGDAFSPAPAGTQGPPPMMGMNMNNRGTIPGPPMGPGPAMGPEGAANMGTPMIPDNGAVHNDRFPQGPPSQMGSPMGNRTGSETPQAPMSGVGPVSGGPGGFGRGSQGGNFEGPNKRRRY
# B2: SFPQ (Splicing factor, proline- and glutamine-rich) (protein, UniProt Q8VIJ6 1-699)
# chain: MSRDRFRSRGGGGGGFHRRGGGGGRGGLHDFRSPPPGMGLNQNRGPMGPGPGGPKPPLPPPPPHQQQQQPPPQQPPPQQPPPHQQPPPHQPPHQQPPPPPQESKPVVPQGPGSAPGVSSAPPPAVSAPPANPPTTGAPPGPGPTPTPPPAVPSTAPGPPPPSTPSSGVSTTPPQTGGPPPPPAGGAGPGPKPGPGPGGPKGGKMPGGPKPGGGPGMGAPGGHPKPPHRGGGEPRGGRQHHAPYHQQHHQGPPPGGPGPRTEEKISDSEGFKANLSLLRRPGEKTYTQRCRLFVGNLPADITEDEFKRLFAKYGEPGEVFINKGKGFGFIKLESRALAEIAKAELDDTPMRGRQLRVRFATHAAALSVRNLSPYVSNELLEEAFSQFGPIERAVVIVDDRGRSTGKGIVEFASKPAARKAFERCSEGVFLLTTTPRPVIVEPLEQLDDEDGLPEKLAQKNPMYQKERETPPRFAQHGTFEYEYSQRWKSLDEMEKQQREQVEKNMKDAKDKLESEMEDAYHEHQANLLRQDLMRRQEELRRMEELHSQEMQKRKEMQLRQEEERRRREEEMMIRQREMEEQMRRQREESYSRMGYMDPRERDMRMGGGGTMNMGDPYGSGGQKFPPLGGGGGIGYEANPGVPPATMSGSMMGSDMRTERFGQGGAGPVGGQGPRGMGPGTPAGYGRGREEYEGPNKKPRF
# B3: TRIM33 (Tripartite motif-containing 33) (protein, UniProt Q99PP7 1-1142)
# chain: MAENKGGGEAESGGGGSGSAPVTAGAAGPTAQEAEPPLAAVLVEEEEEEGGRAGAEGGAAGPDDGGVAAASSSSAPAASVPAASVGSAVPGGAASTPAPAAAPAPAPAPAPAPAPAPAPAPAPGSSSGPPLGPPASLLDTCAVCQQSLQSRREAEPKLLPCLHSFCLRCLPEPERQLSVPIPGGSNGDVQQVGVIRCPVCRQECRQIDLVDNYFVKDTSEAPSSSDEKSEQVCTSCEDNASAVGFCVECGEWLCKTCIEAHQRVKFTKDHLIRKKEDVSESVGTSGQRPVFCPVHKQEQLKLFCETCDRLTCRDCQLLEHKEHRYQFLEEAFQNQKGAIENLLAKLLEKKNYVHFAATQVQNRIKEVNETNKRVEQEIKVAIFTLINEINKKGKSLLQQLENVTKERQMKLLQQQNDITGLSRQVKHVMNFTNWAIASGSSTALLYSKRLITFQLRHILKARCDPVPAANGAIRFHCDPTFWAKNVVNLGNLVIESKPAPGYTPNVVVGQVPPGTNHISKTPGQINLAQLRLQHMQQQVYAQKHQQLQQMRLQQPPAPIPTTTATTQQHPRQAAPQMLQQQPPRLISVQTMQRGNMNCGAFQAHQMRLAQNAARIPGIPRHSAPQYSMMQPHLQRQHSNPGHAGPFPVVSAHNPINPTSPTTATMANANRGPTSPSVTAIELIPSVTNPENLPSLPDIPPIQLEDAGSSSLDNLLSRYISGSHLPPQPTSTMNPSPGPSALSPGSSGLSNSHTPVRPPSTSSTGSRGSCGSSGRTAEKSAHSFKSDQVKVKQEPGTEEEICSFSGAVKQEKTEDGRRSACMLSSPESSLTPPLSTNLHLESELDTLTGLENHVKTEPTDISESCKQSGLSNLVNGKSPIRNLMHRSARIGGDGNSKDDDPNEDWCAVCQNGGDLLCCEKCPKVFHLTCHVPTLLSFPSGDWICTFCRDIGKPEVEYDCDNMQHSKKGKTAQGLSPVDQRKCERLLLYLYCHELSIEFQEPVPVSIPNYYKIIKKPMDLSTVKKKLQKKHSQHYQIPDDFVADVRLIFKNCERFNEMMKVVQVYADTQEINLKGDSEVAKAGKAVALYFEDKLSEIYSDRTFTPLPEFEQDEDDGEVTEDSDEDFIQPRRKRLKSDERPVHIK
# Target: DICER (mouse (endogenous in testis)) (UniProt Q8R418)
# Test: affinity purification with mass spectrometry; DICER immunoprecipitated from 17–18 dpp mouse testes (Dynabeads Protein G); beads washed with Tris buffer pH 8.0, digested with trypsin, LC–ESI-MS/MS
row,Molecule,binding
1,snRNP200 (U5 small nuclear ribonucleoprotein 200 kDa helicase) (from UniProt Q6P4T2 1-2136),binds
2,"KHDRBS1/SAM68 (KH domain-containing, RNA-binding, signal transduction-associated protein 1) (from UniProt Q60749 1-443)",binds
3,B1,binds
4,B2,binds
5,B3,binds
